System: MCF7
Assay: cells
Conditions: Homo sapiens, MCF7, 48 h

`COc1cccc2c1C(=O)c1c(O)c3c(c(O)c1C2=O)C[C@@](O)(C(=O)CO)C[C@@H]3O[C@H]1C[C@H](N)[C@H](O)[C@H](C)O1` [DOXORUBICIN] showed an IC50 of 430 nM.
